{"source": "paper PMC2577925", "binders": {"B1": {"name": "CFP::Gemin3 fusion protein (Drosophila melanogaster Gemin3) (protein, UniProt Q9V3C4 1-1028)", "chain": "MEREIAHSLAGGEERSSDVAPGQVKTFEELRLYRNLLNGLKRNNFVTPTKIQAAAIPMALAKMDLIIQSKSGTGKTLIYVIAVVQSFNPNINQPHAMIVVPTRELAIQVQDTFFHLCKSFRDFKCSAFIGGTDVAKDRKRMNESRVIIGTPGRLLHLYENRVFDVSKLRLLVLDEADQLYQTKSLQHTVSKLIEAMPKNRQIIACSATYDQNLDERLAKVMDKPMLISNSERATVLLGIRQFVYELPQQNNSVEEMRLKLQILGQIFNQLPYEQAIIFASSQMRADSYKNYLTASGIDCHLISGAMEQSERLHVFEGYRNFTMRILVATDLMARGVDSPHANLVINIDPPQDHVTYLHRIGRAGRFGSKGIAITFIASKKESQRFREMSKKIATAWSVLEFPKEPMPNEFNFWDFEKYNFDYYIKEENPLQEMPMPIKENRSKENVDASSVDLENLQKDQDGKRRDPDKLPVALENVETQKELELENLPESSHNNKNLRVKEKEIVRQGKLKETNSKAGGSKTNKTERRKKSNTPSKLQKQITEVQQTPEITVNKYYMQEDIQRTADGKEYHPVNGAGNHQVPSKSNQKPVEFISPELTPTLTPLELTQEPSPTTVTPPAPPANSINNKTYCLAAPTQTSSMTIQNMVISNTVDDASSISSDSMVVCGYHSDRSYDTYYATSDEEEIWNRLMSKQRRQLKSKRGHGKRRVILYKKVFPKLKANVKRKLKKRMSSSCRSKKAHHLRKRHVYKNISLLPHMNLCHLLQKFTNQERFLKRLHKYAKNQFIDNARVGFLLDKLYKSILEMYYNSAKERKKHFKEAMKESLKSIDNYESQESSESEEEEEEEKDLKNKLSVHVTNQMDIPPMPQAAVEIGSGSESDTEDSQEYGEGEEIIVDDEDDGSDGGPNSSSGFVESQESVSSGIDTSVYETESTGASGNNSSAFFISDDESDTESLTDSEAGSNVSATGSSSQRSSVASSTYESSDDDSVTVTNVSSMQNAQSLWLQTFNMQYQFIASHVAKNLQNYY"}}, "biological_target": "T1, survival motor neuron (SMN) protein, Drosophila (Drosophila melanogaster (endogenous in larval muscle)) (UniProt Q9VV74)", "T1 sequence": "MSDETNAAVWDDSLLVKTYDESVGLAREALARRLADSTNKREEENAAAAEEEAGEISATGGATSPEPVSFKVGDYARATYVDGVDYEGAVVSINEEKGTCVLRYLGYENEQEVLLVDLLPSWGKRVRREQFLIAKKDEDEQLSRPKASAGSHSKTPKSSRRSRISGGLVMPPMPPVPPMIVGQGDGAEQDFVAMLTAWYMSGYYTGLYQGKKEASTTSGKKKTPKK", "test": "co-IP; Protein A beads with rabbit anti-SMN; lysate of about 30 larval body wall muscle fillets per IP from CFP::Gemin3 transgenic larvae; lysis buffer 50 mM Tris pH8, 150 mM NaCl, 1 mM EDTA, 1% NP-40; blot probed with mouse anti-GFP; non-specific serum as negative control", "note": "These are yes or no findings as the source states them, for the method shown. Binding seen in cells or lysates may run through a third protein. Some entries that bind do so weakly or less than the wild type. Tags and fused reporters may be left off the sequences shown.", "data": [{"binder": "B1", "values": [{"measurement": "binding", "result": "binds"}]}]}
